Bridge positions count the residues as written; N and C are the ends. Ends that are not written are not given here. Peptide text beside a SMILES is read from it.
Tested on: Sf9 cell ramp membrane current
Experiment: Whole-cell patch-clamp: blockage of Sf9 cell ramp membrane current
Format: cell-based, Spodoptera frugiperda
Details: Hill fit of concentration-response of ramp membrane current block at +50 mV, Sf9 cells, n = 9 (AG41), n = 8 (PA1b)
Description: We further investigated the AG41’s biological activity by performing an electrophysiological experiment on cultured Sf9 cells to check whether its cell-membrane ion transport alteration differed from that of PA1b, the model pea peptide. […] At 35 nM, AG41 decreased by approximately 35 % the ramp current amplitude measured at +50 mV (from 68 pA to 44 pA), while a similar concentration of 37.5 nM PA1b had no effect (trace from AG41 even differed from control at 3.5 nM).
Current recordings were made at room temperature, under voltage clamp using the whole-cell configuration of the patch-clamp technique. Command voltage and data acquisition were performed with pClamp software (Axon Instruments, Foster city, CA, USA). The holding potential was −80 mV. Membrane currents were evoked, every 10 s, by voltage ramps of 1.5 s in duration applied from −100 to 90 mV, filtered at 300 Hz and sampled at 1 kHz with an analogue-to-digital converter (Labmaster TM 40, Scientific Solutions Inc., Solon OH, USA). The external solution contained (in mM): 135 NaCl, 4 KCl, 2 MgCl2, 10 CaCl2 and 10 Mes, adjusted to pH 6.4 with NaOH. The internal solution contained (in mM): 140 K-aspartate, 1 MgCl2, 3 K2-ATP, 5 EGTA and 5 Hepes, adjusted to pH 7.2 with KOH. […]
Biological results are expressed as the mean ± S.E.M., n indicating the number of Sf9 cells studied (electrophysiology). […]

Compound	Hill coefficient
CC[C@H](C)[C@@H]1NC(=O)[C@H](C(C)C)NC(=O)[C@H](CC(C)C)NC(=O)CNC(=O)[C@H](C(C)C)NC(=O)[C@@H]2CCCN2C(=O)[C@H]([C@@H](C)CC)NC(=O)[C@@H]2CSSC[C@@H]3NC(=O)[C@H](C(C)C)NC(=O)CNC(=O)[C@H](CC(N)=O)NC(=O)[C@@H](NC(=O)[C@H](CO)NC(=O)[C@H](C)N)CSSC[C@H](NC(=O)[C@H](C)NC(=O)[C@H](CO)NC(=O)[C@H]([C@@H](C)O)NC(=O)CNC(=O)[C@H](CSSC[C@@H](C(=O)N[C@@H](CCCNC(=N)N)C(=O)N[C@@H](CC(N)=O)C(=O)N4CCC[C@H]4C(=O)N[C@@H](CO)C(=O)NCC(=O)O)NC(=O)[C@H](Cc4ccc(O)cc4)NC(=O)CNC1=O)NC(=O)[C@@H]1CCCN1C(=O)[C@@H]1CCCN1C(=O)[C@H](CCSC)NC(=O)[C@H](CCC(=O)O)NC(=O)[C@H](Cc1ccccc1)NC(=O)[C@@H]1CCCN1C(=O)[C@H](CO)NC3=O)C(=O)N[C@@H](CCCNC(=N)N)C(=O)N2 [PA1b, reference compound] (H-ASCNGVCSPFEMPPCGTSACRCIPVGLVIGYCRNPSG-OH; disulfide 3-20, 7-22, 15-32; N-terminus and C-terminus assumed)	1.7 ± 0.2
ASCPNVGAVCSPFETKPCGNVKDCRCLPWGLFFGTCINPTG (disulfide 3-24, 10-26, 18-36 (inferred)) [AG41]	1.4 ± 0.1
